No constants are given. Whether binding was seen depends on the method and setting. Binding seen in cells or lysates may run through a third protein. Some entries that bind do so weakly or less than the wild type. For some of these results: Tags and fused reporters may be left off the sequences shown.

Sequences of proteins named here, by UniProt entry; tags and fusion partners are left off.
UniProt Q8N5F7: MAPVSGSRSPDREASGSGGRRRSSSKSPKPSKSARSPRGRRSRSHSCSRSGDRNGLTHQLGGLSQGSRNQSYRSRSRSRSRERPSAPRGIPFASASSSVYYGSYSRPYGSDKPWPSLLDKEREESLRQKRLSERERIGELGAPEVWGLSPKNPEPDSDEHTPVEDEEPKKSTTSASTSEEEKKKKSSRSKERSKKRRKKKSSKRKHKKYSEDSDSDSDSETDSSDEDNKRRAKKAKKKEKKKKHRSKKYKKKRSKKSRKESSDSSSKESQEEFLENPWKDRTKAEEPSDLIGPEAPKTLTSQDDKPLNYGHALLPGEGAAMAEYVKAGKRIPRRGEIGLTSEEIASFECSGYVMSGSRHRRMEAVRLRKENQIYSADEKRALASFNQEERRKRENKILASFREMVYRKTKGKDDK

Assay [1] addresses T1, DiGeorge critical region 8 (DGCR8) (human (endogenous in PANC-1)) (UniProt Q8WYQ5).
T1 sequence: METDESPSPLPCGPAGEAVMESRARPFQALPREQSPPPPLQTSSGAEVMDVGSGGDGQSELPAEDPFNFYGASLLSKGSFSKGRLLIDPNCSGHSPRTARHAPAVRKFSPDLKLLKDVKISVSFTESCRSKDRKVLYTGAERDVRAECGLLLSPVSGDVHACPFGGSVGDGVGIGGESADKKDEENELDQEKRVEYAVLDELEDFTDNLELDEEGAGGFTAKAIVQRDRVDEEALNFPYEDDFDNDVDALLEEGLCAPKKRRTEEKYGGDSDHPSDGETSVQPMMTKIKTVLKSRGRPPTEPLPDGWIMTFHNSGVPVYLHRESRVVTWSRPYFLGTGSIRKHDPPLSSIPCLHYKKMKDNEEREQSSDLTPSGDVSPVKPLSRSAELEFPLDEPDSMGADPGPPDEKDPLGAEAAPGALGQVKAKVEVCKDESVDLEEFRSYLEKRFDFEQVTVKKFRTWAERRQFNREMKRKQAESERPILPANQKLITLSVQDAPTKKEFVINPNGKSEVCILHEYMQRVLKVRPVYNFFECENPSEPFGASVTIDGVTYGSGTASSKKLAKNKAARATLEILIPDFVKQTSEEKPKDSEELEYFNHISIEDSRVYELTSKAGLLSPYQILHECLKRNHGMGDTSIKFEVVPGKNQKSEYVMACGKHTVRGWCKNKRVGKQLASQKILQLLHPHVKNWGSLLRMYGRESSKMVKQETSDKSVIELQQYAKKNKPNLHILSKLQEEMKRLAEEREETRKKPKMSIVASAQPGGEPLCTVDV
Briefly: co-IP; anti-DGCR8 co-IP, Western blot of candidates from the proteomic screen. Background: A western blot detects proteins with antibodies after separation by electrophoresis.

Assay [2] addresses T2, DGCR8-6 × His (whole length) (UniProt Q8WYQ5).
T2 sequence: T1 sequence
Briefly: co-IP; His-tagged DGCR8 and FLAG-tagged NKAP (wild-type versus domain truncation mutants) co-transfected into PANC-1 cells; Western blot.

In assay [3] the target is T1, DiGeorge critical region 8 (DGCR8) (human (endogenous in PANC-1)). Briefly: co-IP; reciprocal immunoprecipitation from PANC-1 cells expressing FLAG-tagged NKAP; 1 x RIPA lysate, supernatant treated with RNase A (20 μg/ml) before immunoprecipitation.
For assay [4], the target named is NKAP-3 × FLAG (whole length) (UniProt Q8N5F7). The assay is described as above.

For “NF-κB associated protein (NKAP) (from UniProt Q8N5F7 1-415)”, the binding entry in assay [1] is reported as “binds”.
“NKAP-3 × FLAG (whole length) (from UniProt Q8N5F7 1-415)”: the binding result in assay [2] and in assay [3] was “binds” throughout.

B1: RNase III enzyme RNASEN (Drosha) (enzyme, UniProt Q9NRR4 1-1374)
chain: MMQGNTCHRMSFHPGRGCPRGRGGHGARPSAPSFRPQNLRLLHPQQPPVQYQYEPPSAPSTTFSNSPAPNFLPPRPDFVPFPPPMPPSAQGPLPPCPIRPPFPNHQMRHPFPVPPCFPPMPPPMPCPNNPPVPGAPPGQGTFPFMMPPPSMPHPPPPPVMPQQVNYQYPPGYSHHNFPPPSFNSFQNNPSSFLPSANNSSSPHFRHLPPYPLPKAPSERRSPERLKHYDDHRHRDHSHGRGERHRSLDRRERGRSPDRRRQDSRYRSDYDRGRTPSRHRSYERSRERERERHRHRDNRRSPSLERSYKKEYKRSGRSYGLSVVPEPAGCTPELPGEIIKNTDSWAPPLEIVNHRSPSREKKRARWEEEKDRWSDNQSSGKDKNYTSIKEKEPEETMPDKNEEEEEELLKPVWIRCTHSENYYSSDPMDQVGDSTVVGTSRLRDLYDKFEEELGSRQEKAKAARPPWEPPKTKLDEDLESSSESECESDEDSTCSSSSDSEVFDVIAEIKRKKAHPDRLHDELWYNDPGQMNDGPLCKCSAKARRTGIRHSIYPGEEAIKPCRPMTNNAGRLFHYRITVSPPTNFLTDRPTVIEYDDHEYIFEGFSMFAHAPLTNIPLCKVIRFNIDYTIHFIEEMMPENFCVKGLELFSLFLFRDILELYDWNLKGPLFEDSPPCCPRFHFMPRFVRFLPDGGKEVLSMHQILLYLLRCSKALVPEEEIANMLQWEELEWQKYAEECKGMIVTNPGTKPSSVRIDQLDREQFNPDVITFPIIVHFGIRPAQLSYAGDPQYQKLWKSYVKLRHLLANSPKVKQTDKQKLAQREEALQKIRQKNTMRREVTVELSSQGFWKTGIRSDVCQHAMMLPVLTHHIRYHQCLMHLDKLIGYTFQDRCLLQLAMTHPSHHLNFGMNPDHARNSLSNCGIRQPKYGDRKVHHMHMRKKGINTLINIMSRLGQDDPTPSRINHNERLEFLGDAVVEFLTSVHLYYLFPSLEEGGLATYRTAIVQNQHLAMLAKKLELDRFMLYAHGPDLCRESDLRHAMANCFEALIGAVYLEGSLEEAKQLFGRLLFNDPDLREVWLNYPLHPLQLQEPNTDRQLIETSPVLQKLTEFEEAIGVIFTHVRLLARAFTLRTVGFNHLTLGHNQRMEFLGDSIMQLVATEYLFIHFPDHHEGHLTLLRSSLVNNRTQAKVAEELGMQEYAITNDKTKRPVALRTKTLADLLESFIAALYIDKDLEYVHTFMNVCFFPRLKEFILNQDWNDPKSQLQQCCLTLRTEGKEPDIPLYKTLQTVGPSHARTYTVAVYFKGERIGCGKGPSIQQAEMGAAMDALEKYNFPQMAHQKRFIERKYRQELKEMRWEREHQEREPDETEDIKK
In the case of B1, the binding entry in assay [4] is given as “binds”.

For the origin of these results see paper PMC6478927.
